Data taken from the supplement of paper PMC9938546.
Counter-ions that a name gives are not always drawn. Some of the results follow. Part of the spread comes from offsets between plates or batches.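 HCT116-GFP is a human colorectal cancer cell line that carries a KRAS mutation, is microsatellite-unstable and always makes green fluorescent protein; the immune cells came from healthy donors. Live-cell imaging of the green signal stood in for cancer cell survival, and activated immune cells alone cut survival to about half.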

system: HCT116-GFP; test: HCT116-GFP viability (GFP intensity) relative to untreated HCT116-GFP monoculture control, co-culture with activated PBMCs; higher = less cancer cell killing; conditions: culture: co-culture with anti-CD3/IL2 activated PBMCs 1:1; 10 µM; 72 h

Row | Compound | HCT116-GFP viability [%]
1 | C[C@]12CCC(=O)C(O)=C1CC[C@@H]1[C@@H]2CC[C@]2(C)C(=O)CC[C@@H]12 [Formestane] | 59.8
2 | C[N+]12CCC(CC1)C(OC(=O)C(O)(c1ccccc1)c1ccccc1)C2 (configuration not stated) [Clidinium bromide] | 80.1
3 | C[C@@]12N[C@@H](Cc3ccccc31)c1ccccc12 [(-)-MK 801 hydrogen maleate] | 63.8
4 | CC(=O)OCC1=C(C(=O)O)N2C(=O)[C@@H](N)[C@H]2SC1 [Cephalosporanic acid, 7-amino] | 60.4
5 | CO[C@]12C[C@@H](COC(=O)c3cncc(Br)c3)CN(C)[C@@H]1Cc1cn(C)c3cccc2c13 [Nicergoline] | 45.5
6 | CC(C)C[C@H](CN)CC(=O)O [Pregabalin] | 35.3
7 | CC(C)(C)NCC(O)c1ccccc1Cl (configuration not stated) [Tulobuterol] | 35.9
8 | C[C@]12Cc3c[nH]nc3C[C@@H]1CC[C@@H]1[C@@H]2CC[C@@]2(C)[C@H]1CC[C@]2(C)O [Stanozolol] | 65.6
9 | C[C@@H]1CC[C@H]2[C@@H](C)C(=O)O[C@@H]3O[C@@]4(C)CC[C@@H]1[C@]32OO4 [Artemisinin] | 33.9
10 | CCC1(c2cccc(O)c2)CCCCN(C)C1 (configuration not stated) [Meptazinol hydrochloride] | 46
11 | COc1cc([C@@H]2c3cc4c(cc3[C@H](O)[C@H]3COC(=O)[C@H]23)OCO4)cc(OC)c1OC [Podophyllotoxin] | 8.6
12 | CCN(C(C)=O)c1cccc(-c2ccnc3c(C#N)cnn23)c1 [Zaleplon] | 57.9
13 | NCCc1c[nH]c2ccc(O)cc12 [Serotonin hydrochloride] | 49.2
14 | CCC(COC(=O)c1cc(OC)c(OC)c(OC)c1)(c1ccccc1)N(C)C (configuration not stated) [Trimebutine] | 37.4
15 | NC(=O)C[S+]([O-])C(c1ccccc1)c1ccccc1 (configuration not stated) [Modafinil] | 47.9
16 | CN1CCN(C(=O)OC2c3nccnc3C(=O)N2c2ccc(Cl)cn2)CC1 (configuration not stated) [Zopiclone] | 44.4
17 | Clc1ccc(C(OCCN2CCCCC2)c2ccccc2)cc1 (configuration not stated) [Cloperastine hydrochloride] | 95.2
18 | C[C@]12CC[C@H](O)C[C@H]1CC[C@@H]1[C@@H]2C[C@@H](O)[C@]2(C)[C@@H](C3=CC(=O)OC3)CC[C@]12O [Digoxigenin] | 3.03
19 | CC(Cc1ccccc1)NCCC(c1ccccc1)c1ccccc1 (configuration not stated) [Prenylamine lactate] | 27.2
20 | CC(=O)NC1CCSC1=O (racemic) [N-Acetyl-DL-homocysteine Thiolactone] | 67.4
21 | Cc1cccc(C)c1NC1=NCCCS1 [Xylazine] | 30.3

Row | Compound | HCT116-GFP viability [%]
22 | NC(=O)CN1CCCC1=O [Piracetam] | 42.5
23 | O=P1(NCCCl)OCCCN1CCCl (configuration not stated) [Ifosfamide] | 80.3
24 | CC(C)c1c(CN(C)C(C)Cc2ccccc2)n(C)n(-c2ccccc2)c1=O (configuration not stated) [Famprofazone] | 66.9
25 | C=C(C)[C@@H]1[C@H]2OC(=O)[C@@H]1[C@]1(O)C[C@H]3O[C@]34C(=O)O[C@H]2[C@]14C [Picrotoxinin] | 76.9
26 | CC(=O)OCC(=O)[C@H]1CC[C@H]2[C@@H]3CC[C@H]4C[C@H](O)CC[C@]4(C)[C@H]3C(=O)C[C@]12C [Alfadolone acetate] | 42.5
27 | C[C@]12CC[C@@H]3c4ccc(OC(=O)N(CCCl)CCCl)cc4CC[C@H]3[C@@H]1CC[C@@H]2O [Estramustine] | 10.8
28 | CN(C)C(=O)Oc1cc(OC(=O)N(C)C)cc(C(O)CNC(C)(C)C)c1 (configuration not stated) [Bambuterol hydrochloride] | 33.9
29 | CCn1cc(C(=O)O)c(=O)c2cc3c(cc21)OCO3 [Oxolinic acid] | 44
30 | C[C@]12CC[C@H](O)C[C@@H]1CC[C@@H]1[C@@H]2CC[C@]2(C)C(=O)CC[C@@H]12 [Epiandrosterone] | 49.6
31 | CCC1(c2ccc(N)cc2)CCC(=O)NC1=O (configuration not stated) [Glutethimide, para-amino] | 44.3
32 | CCN(C)C(=O)Oc1cccc([C@H](C)N(C)C)c1 [Rivastigmine] | 34.4
33 | CC[C@@]1([C@@H]2O[C@@H]([C@H]3O[C@@](O)(CO)[C@H](C)C[C@@H]3C)C[C@@H]2C)CC[C@H]([C@]2(C)CC[C@]3(C[C@H](O)[C@@H](C)[C@@H]([C@@H](C)[C@@H](OC)[C@H](C)C(=O)O)O3)O2)O1 [Monensin sodium salt] | 20.3
34 | CN1[C@@H]2CC[C@H]1C[C@@H](OC1c3ccccc3CCc3ccccc31)C2 [Deptropine citrate] | 45.9
35 | NCC(O)c1ccc(O)cc1 (racemic) [(+,-)-Octopamine hydrochloride] | 71.2
36 | COc1ccc(Cc2nccc3cc(OC)c(OC)cc23)cc1OC [Papaverine hydrochloride] | 34.2
37 | CCC1(CC)C(=O)C=CNC1=O [Pyrithyldione] | 73.9
38 | CC(C)(C)NCC(O)c1cc(Cl)c(N)c(Cl)c1 (configuration not stated) [Clenbuterol hydrochloride] | 64.6
39 | Fc1ccc(C(OCCN2CCN(CCCc3ccccc3)CC2)c2ccc(F)cc2)cc1 | 7.15
40 | COc1ccc(CCN2CCC(Nc3nc4ccccc4n3Cc3ccc(F)cc3)CC2)cc1 [Astemizole] | 1.91
41 | CC(=O)O[C@H]1C[C@H](O[C@H]2[C@@H](O)C[C@H](O[C@H]3[C@@H](O)C[C@H](O[C@H]4CC[C@@]5(C)[C@H](CC[C@@H]6[C@@H]5C[C@@H](O)[C@]5(C)[C@@H](C7=CC(=O)OC7)CC[C@]65O)C4)O[C@@H]3C)O[C@@H]2C)O[C@H](C)[C@H]1O[C@@H]1O[C@H](CO)[C@@H](O)[C@H](O)[C@H]1O [Lanatoside C] | 2.84
42 | C[N+]1([O-])[C@@H]2C[C@@H](OC(=O)[C@H](CO)c3ccccc3)C[C@H]1[C@@H]1O[C@@H]12 (some centres not stated) [Scopolamin-N-oxide hydrobromide] | 50

Row | Compound | HCT116-GFP viability [%]
43 | C[C@]12N[C@H](Cc3ccccc31)c1ccccc12 [Dizocilpine maleate] | 49.4
44 | CCN(CC)C(C)C(=O)c1ccccc1 (configuration not stated) [Amfepramone hydrochloride] | 55.7
45 | O[C@@H]1CCCC[C@H]1N1CCC(c2ccccc2)CC1 [L(-)-vesamicol hydrochloride] | 75
46 | Oc1cc(Cl)ccc1Oc1ccc(Cl)cc1Cl [Triclosan] | 19.7
47 | COc1ccc(CCN)cc1OC [Homoveratrylamine] | 66.7
48 | CCCN1C[C@H](CSC)C[C@@H]2c3cccc4[nH]cc(c34)C[C@H]21 [Pergolide mesylate] | 55.6
49 | CCC(=O)O[C@@](Cc1ccccc1)(c1ccccc1)[C@@H](C)CN(C)C [Levopropoxyphene napsylate] | 51.1
50 | CC[C@@]1(O)C(=O)OCc2c1cc1n(c2=O)Cc2cc3ccccc3nc2-1 [Camptothecine (S,+)] | 3.5
51 | COc1cccc(C2(O)CCCCC2CN(C)C)c1 (configuration not stated) [Tramadol hydrochloride] | 90.2
52 | CC(CCc1ccccc1)NC(C)C(O)c1ccc(O)cc1 (configuration not stated) [Nylidrin] | 64.1
53 | CC(=O)OC1CN2CCC1CC2 (configuration not stated) [Aceclidine Hydrochloride] | 41.5
54 | c1ccc2nc(N3CCNCC3)ccc2c1 [Quipazine dimaleate salt] | 63
55 | C[N+](C)(C)CCCCCCCCCC[N+](C)(C)C [Decamethonium bromide] | 30.7
56 | CN1C[C@H](C(=O)N[C@]2(C)O[C@@]3(O)[C@@H]4CCCN4C(=O)[C@H](Cc4ccccc4)N3C2=O)C[C@@H]2c3cccc4[nH]cc(c34)C[C@H]21 [Dihydroergotamine tartrate] | 77.2
57 | C[N+]1(C)[C@@H]2CC[C@H]1C[C@@H](OC(=O)C(CO)c1ccccc1)C2 (some centres not stated) [Methylatropine nitrate] | 77
58 | CCN[C@@H](C)Cc1cccc(C(F)(F)F)c1 [Dexfenfluramine hydrochloride] | 45
59 | C[N+]1(C)CCOC(O)(c2ccc(-c3ccc(C4(O)C[N+](C)(C)CCO4)cc3)cc2)C1 (configuration not stated) [Hemicholinium bromide] | 49.1
60 | CC[C@H](C)[C@H]1O[C@]2(C=C[C@@H]1C)C[C@@H]1C[C@@H](C/C=C(\C)[C@@H](O[C@H]3C[C@H](OC)[C@@H](O[C@H]4C[C@H](OC)[C@@H](O)[C@H](C)O4)[C@H](C)O3)[C@@H](C)/C=C/C=C3\CO[C@@H]4[C@H](O)C(C)=C[C@@H](C(=O)O1)[C@]34O)O2.CO[C@H]1C[C@H](O[C@H]2[C@H](C)O[C@@H](O[C@@H]3/C(C)=C/C[C@@H]4C[C@@H](C[C@]5(C=C[C@H](C)[C@@H](C(C)C)O5)O4)OC(=O)[C@@H]4C=C(C)[C@@H](O)[C@H]5OC/C(=C\C=C\[C@@H]3C)[C@]54O)C[C@@H]2OC)O[C@@H](C)[C@@H]1O [Avermectin B1] | 25.9
61 | C[C@]12CCC(=O)C=C1CC[C@@H]1[C@@H]2C(=O)C[C@]2(C)C(=O)CC[C@@H]12 [Adrenosterone] | 78.3
62 | COc1ccc(C(=O)N2CCCC2=O)cc1 [Aniracetam] | 46.3
63 | CC[C@@H](C(N)=O)N1CCCC1=O [Levetiracetam] | 43.9

Some of these compounds in order of SMILES length, rising.
Row | Compound | HCT116-GFP viability [%]
46 | Oc1cc(Cl)ccc1Oc1ccc(Cl)cc1Cl [Triclosan] | 19.7
57 | C[N+]1(C)[C@@H]2CC[C@H]1C[C@@H](OC(=O)C(CO)c1ccccc1)C2 (some centres not stated) [Methylatropine nitrate] | 77
61 | C[C@]12CCC(=O)C=C1CC[C@@H]1[C@@H]2C(=O)C[C@]2(C)C(=O)CC[C@@H]12 [Adrenosterone] | 78.3

Remaining list, next part.

Row | Compound | HCT116-GFP viability [%]
64 | O=c1[nH]c2ccccc2n1CCCN1CCC(n2c(=O)[nH]c3cc(Cl)ccc32)CC1 [Domperidone] | 61.5
65 | O=C([O-])c1ccccc1-c1c2cc(Br)c(=O)cc-2oc2[c]([Hg+])c([O-])c(Br)cc12.[Na+].[Na+].[OH-] [Merbromin] | 81.1
66 | CC(C)[N+](C)(CCC(C(N)=O)(c1ccccc1)c1ccccc1)C(C)C [Isopropamide iodide] | 84.2
67 | C#C[C@]1(O)CC[C@H]2[C@@H]3CCC4=CC(=O)CC[C@]4(C)[C@H]3CC[C@@]21C [Ethisterone] | 42.2
68 | CC(C)CC(N(C)C)C1(c2ccc(Cl)cc2)CCC1 (configuration not stated) [Sibutramine hydrochloride] | 56.3
69 | S=C(NC1CCCCC1)N1CCC(c2cnc[nH]2)CC1 [Thioperamide maleate] | 60
70 | COc1ccc2c(c1)[C@]13CCCC[C@@H]1[C@H](C2)N(C)CC3 [Dextromethorphan hydrobromide monohydrate] | 46.7
71 | C=CC[C@]1(O)CC[C@H]2[C@@H]3CCC4=CC(=O)CCC4=C3C=C[C@@]21C [Altrenogest] | 37.9
72 | CC(Cc1ccc(O)cc1)NCC(O)c1cc(O)cc(O)c1 (configuration not stated) [Fenoterol hydrobromide] | 53.6
73 | C1CCc2nnnn2CC1 [Pentylenetetrazole] | 31.1
74 | CNCC(O)c1ccc(O)cc1 (racemic) [(+,-)-Synephrine] | 84.9
75 | C[C@]12CC[C@@H](O)C[C@@H]1CC[C@@H]1[C@@H]2CC[C@]2(C)C(=O)CC[C@@H]12 [Androsterone] | 34.2
76 | O=[N+]([O-])O[C@@H]1CO[C@H]2[C@@H]1OC[C@@H]2O [Isosorbide mononitrate] | 40.5
77 | CC(C)N(CCC(C(N)=O)(c1ccccc1)c1ccccn1)C(C)C (configuration not stated) [Disopyramide] | 42.5
78 | C[C@H](N)[C@H](O)c1ccc(O)c(O)c1 [Levonordefrin] | 82.6
79 | CN1[C@@H]2CC[C@H]1C[C@@H](OC(=O)[C@H](CO)c1ccccc1)C2 [Hyoscyamine (L)] | 56
80 | CN[C@@H]1C[C@@H](c2ccc(Cl)c(Cl)c2)c2ccccc21 [Indatraline hydrochloride] | 36
81 | COc1ccc(CN2CCNCC2)c(OC)c1OC [Trimetazidine dihydrochloride] | 46.2
82 | C[C@]12CC[C@H]3[C@@H](CCC4=CC(=O)CC[C@@H]43)[C@@H]1CC[C@@H]2O [Nandrolone] | 49.3

Reformatted tab-delimited: 2 of the compounds above
Row	Compound	HCT116-GFP viability [%]
67	C#C[C@]1(O)CC[C@H]2[C@@H]3CCC4=CC(=O)CC[C@]4(C)[C@H]3CC[C@@]21C [Ethisterone]	42.2
68	CC(C)CC(N(C)C)C1(c2ccc(Cl)cc2)CCC1 (configuration not stated) [Sibutramine hydrochloride]	56.3
